In article PMC3325980:
These are yes or no findings as the source states them, for the method shown. Some entries that bind do so weakly or less than the wild type. Sequences can lack the tags named with a protein.

T1: BMP-2 (UniProt P12643)
T1 sequence: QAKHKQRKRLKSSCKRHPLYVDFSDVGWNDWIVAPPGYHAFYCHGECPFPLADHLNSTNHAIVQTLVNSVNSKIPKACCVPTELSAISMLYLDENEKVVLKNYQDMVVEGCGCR

T2: BMP-4 (UniProt P12644)
T2 sequence: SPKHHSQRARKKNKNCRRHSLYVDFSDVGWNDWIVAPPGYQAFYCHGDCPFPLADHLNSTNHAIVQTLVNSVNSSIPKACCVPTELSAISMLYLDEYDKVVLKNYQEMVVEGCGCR

T3: BMP-7, P18075
T3 chain: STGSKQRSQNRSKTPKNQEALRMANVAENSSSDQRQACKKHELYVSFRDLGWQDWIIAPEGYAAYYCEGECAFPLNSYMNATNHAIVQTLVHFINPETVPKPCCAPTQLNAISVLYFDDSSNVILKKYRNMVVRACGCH


Experiments:
Assay in all cases: ELISA; enzyme immunoassay; microtiter plates coated with 100 nM BMP-2, BMP-4 or BMP-7, blocked with 1% skim milk in PBS; gremlin-1-Fc 10 nM added (with or without 500 nM GRE1 antibody); detected with HRP-conjugated IgG-Fc specific antibody and ABTS; triplicate; both purified
BMP-2 = biological target: T1, BMP-2
BMP-4 = biological target: T2, BMP-4
BMP-7, P18075 = biological target: T3, BMP-7, P18075; conditions: remark: other sources report otherwise

binding (BMP-2) | binding (BMP-4) | binding (BMP-7, P18075) | Binder
binds | binds |  | gremlin-1-Fc fusion protein (Fc fusion, UniProt O60565 25-184) KKKGSQGAIPPPDKAQHNDSEQTQSPQQPGSRNRGRGQGRGTAMPGEEVLESSQEALHVTERKYLKRDWCKTQPLKQTIHEEGCNSRTIINRFCYGQCNSFYIPRHIRKEEGSFQSCSFCKPKKFTTMMVTLNCPELQPPTKKKRVTRVKQCRCISIDLD
 |  | no binding (tested: 10 nM) | gremlin-1-Fc fusion protein, O60565 25-184 (Fc fusion) KKKGSQGAIPPPDKAQHNDSEQTQSPQQPGSRNRGRGQGRGTAMPGEEVLESSQEALHVTERKYLKRDWCKTQPLKQTIHEEGCNSRTIINRFCYGQCNSFYIPRHIRKEEGSFQSCSFCKPKKFTTMMVTLNCPELQPPTKKKRVTRVKQCRCISIDLD
